Consider ten targets from the supplement of paper PMC7666118.

By UniProt entry, the sequences of proteins in these tests, tags left out. Where a name states a change or a piece, a line headed by the entry shows the natural chain unless it says otherwise.
UniProt Q9Y6W5, whole entry: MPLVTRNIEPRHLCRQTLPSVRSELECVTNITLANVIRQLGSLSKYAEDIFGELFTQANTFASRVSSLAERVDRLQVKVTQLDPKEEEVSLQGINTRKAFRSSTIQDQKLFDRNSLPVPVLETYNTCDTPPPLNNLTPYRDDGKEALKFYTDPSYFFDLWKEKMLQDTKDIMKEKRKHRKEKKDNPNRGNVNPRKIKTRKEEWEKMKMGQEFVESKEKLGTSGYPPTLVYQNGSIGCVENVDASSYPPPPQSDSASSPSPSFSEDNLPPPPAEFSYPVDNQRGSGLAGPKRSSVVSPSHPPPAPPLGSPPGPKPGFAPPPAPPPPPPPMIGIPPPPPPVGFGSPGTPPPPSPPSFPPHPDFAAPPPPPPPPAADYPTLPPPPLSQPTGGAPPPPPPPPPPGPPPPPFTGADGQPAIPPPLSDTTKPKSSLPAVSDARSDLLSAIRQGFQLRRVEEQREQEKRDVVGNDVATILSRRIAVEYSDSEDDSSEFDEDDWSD
UniProt Q9UN37: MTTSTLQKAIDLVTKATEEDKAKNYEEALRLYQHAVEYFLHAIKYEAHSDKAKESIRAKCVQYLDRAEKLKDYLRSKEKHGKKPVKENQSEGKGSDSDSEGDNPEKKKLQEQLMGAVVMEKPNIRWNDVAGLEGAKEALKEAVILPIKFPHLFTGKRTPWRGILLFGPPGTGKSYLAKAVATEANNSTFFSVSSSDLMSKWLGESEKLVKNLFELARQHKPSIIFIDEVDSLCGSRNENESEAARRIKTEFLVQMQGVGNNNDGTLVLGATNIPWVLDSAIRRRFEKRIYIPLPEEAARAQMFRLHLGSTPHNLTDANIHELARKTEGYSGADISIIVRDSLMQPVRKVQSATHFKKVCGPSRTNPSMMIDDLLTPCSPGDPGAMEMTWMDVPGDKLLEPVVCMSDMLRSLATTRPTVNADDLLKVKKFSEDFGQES
UniProt Q9NUE0: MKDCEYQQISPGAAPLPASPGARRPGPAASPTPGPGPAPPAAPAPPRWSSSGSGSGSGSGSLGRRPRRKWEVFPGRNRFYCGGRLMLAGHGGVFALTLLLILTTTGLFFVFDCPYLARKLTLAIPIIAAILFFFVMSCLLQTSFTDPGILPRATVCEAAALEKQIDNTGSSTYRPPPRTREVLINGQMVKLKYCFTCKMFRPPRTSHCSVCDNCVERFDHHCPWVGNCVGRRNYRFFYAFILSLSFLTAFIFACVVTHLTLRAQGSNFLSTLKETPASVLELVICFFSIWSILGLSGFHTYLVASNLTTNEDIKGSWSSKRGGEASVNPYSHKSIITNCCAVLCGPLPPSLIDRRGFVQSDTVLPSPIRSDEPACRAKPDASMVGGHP
UniProt O43670: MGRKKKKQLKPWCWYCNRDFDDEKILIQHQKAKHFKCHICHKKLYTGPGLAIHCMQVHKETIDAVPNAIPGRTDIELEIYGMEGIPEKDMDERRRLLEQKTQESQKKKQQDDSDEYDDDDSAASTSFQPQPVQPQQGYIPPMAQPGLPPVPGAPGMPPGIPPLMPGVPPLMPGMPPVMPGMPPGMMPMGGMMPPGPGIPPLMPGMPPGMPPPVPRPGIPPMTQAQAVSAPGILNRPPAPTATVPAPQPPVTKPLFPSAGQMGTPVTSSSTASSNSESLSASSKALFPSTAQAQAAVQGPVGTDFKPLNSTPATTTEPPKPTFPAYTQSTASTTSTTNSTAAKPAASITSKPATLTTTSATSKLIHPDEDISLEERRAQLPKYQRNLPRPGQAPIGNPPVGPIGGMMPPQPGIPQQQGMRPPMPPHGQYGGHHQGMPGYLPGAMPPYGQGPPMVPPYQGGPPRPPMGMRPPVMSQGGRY
UniProt Q14202: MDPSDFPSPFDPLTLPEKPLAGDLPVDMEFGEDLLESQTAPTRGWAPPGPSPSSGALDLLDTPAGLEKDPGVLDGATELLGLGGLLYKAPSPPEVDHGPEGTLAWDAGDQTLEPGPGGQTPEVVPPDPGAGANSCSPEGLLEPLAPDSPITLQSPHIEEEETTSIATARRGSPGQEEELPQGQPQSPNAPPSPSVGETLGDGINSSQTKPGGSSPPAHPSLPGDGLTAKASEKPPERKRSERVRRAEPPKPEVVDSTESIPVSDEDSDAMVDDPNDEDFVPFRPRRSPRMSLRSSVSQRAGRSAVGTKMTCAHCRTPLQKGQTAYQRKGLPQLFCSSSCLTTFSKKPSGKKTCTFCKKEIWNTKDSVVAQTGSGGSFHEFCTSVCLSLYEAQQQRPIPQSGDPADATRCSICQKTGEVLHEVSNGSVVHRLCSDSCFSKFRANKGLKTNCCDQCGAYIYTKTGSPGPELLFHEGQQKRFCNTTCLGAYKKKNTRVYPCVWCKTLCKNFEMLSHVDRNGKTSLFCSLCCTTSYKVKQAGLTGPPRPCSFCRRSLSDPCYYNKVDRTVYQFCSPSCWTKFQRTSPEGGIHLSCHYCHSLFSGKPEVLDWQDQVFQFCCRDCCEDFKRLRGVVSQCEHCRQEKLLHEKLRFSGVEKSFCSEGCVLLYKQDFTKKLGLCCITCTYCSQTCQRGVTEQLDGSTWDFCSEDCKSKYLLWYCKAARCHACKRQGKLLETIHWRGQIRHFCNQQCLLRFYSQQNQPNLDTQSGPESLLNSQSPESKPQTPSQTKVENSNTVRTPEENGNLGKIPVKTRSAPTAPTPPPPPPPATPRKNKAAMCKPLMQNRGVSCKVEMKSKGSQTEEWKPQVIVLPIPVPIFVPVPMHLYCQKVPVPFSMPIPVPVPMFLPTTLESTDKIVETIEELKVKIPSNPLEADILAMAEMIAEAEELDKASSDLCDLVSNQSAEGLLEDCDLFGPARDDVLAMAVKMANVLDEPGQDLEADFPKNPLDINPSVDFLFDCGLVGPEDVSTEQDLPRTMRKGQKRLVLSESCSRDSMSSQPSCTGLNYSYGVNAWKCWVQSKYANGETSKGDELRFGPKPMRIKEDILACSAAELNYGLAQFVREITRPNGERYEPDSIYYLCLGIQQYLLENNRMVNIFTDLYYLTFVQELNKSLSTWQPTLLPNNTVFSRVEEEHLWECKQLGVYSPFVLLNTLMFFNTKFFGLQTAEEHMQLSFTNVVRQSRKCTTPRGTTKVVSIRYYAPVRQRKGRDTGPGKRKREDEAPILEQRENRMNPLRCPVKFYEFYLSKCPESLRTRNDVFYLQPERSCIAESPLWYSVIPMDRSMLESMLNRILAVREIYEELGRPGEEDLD
UniProt Q8TED0: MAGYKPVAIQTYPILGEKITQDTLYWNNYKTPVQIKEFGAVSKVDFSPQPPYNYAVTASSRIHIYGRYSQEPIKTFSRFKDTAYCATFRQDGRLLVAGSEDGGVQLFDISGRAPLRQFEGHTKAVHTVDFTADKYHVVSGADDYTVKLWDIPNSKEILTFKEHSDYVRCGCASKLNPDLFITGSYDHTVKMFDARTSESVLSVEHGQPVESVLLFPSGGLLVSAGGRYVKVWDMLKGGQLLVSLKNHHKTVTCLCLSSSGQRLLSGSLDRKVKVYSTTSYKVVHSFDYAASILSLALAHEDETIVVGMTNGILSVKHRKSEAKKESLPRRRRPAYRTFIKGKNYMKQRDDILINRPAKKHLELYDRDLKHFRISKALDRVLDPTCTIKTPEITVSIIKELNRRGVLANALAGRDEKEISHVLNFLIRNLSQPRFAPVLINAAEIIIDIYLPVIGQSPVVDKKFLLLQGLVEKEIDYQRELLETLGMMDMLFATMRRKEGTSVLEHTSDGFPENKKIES
UniProt Q9Y4P8: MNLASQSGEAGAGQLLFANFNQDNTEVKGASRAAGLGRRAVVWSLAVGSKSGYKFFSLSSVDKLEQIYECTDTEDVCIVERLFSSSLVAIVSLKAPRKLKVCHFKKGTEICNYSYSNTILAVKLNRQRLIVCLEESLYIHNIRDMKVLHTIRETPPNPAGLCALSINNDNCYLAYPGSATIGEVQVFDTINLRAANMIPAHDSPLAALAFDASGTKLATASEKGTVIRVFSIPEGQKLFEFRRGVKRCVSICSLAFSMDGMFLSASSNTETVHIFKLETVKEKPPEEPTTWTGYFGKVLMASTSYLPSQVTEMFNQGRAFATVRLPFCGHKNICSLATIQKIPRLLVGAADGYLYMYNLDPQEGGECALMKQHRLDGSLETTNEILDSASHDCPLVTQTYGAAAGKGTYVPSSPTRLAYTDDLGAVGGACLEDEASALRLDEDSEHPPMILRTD
UniProt Q5VYS8: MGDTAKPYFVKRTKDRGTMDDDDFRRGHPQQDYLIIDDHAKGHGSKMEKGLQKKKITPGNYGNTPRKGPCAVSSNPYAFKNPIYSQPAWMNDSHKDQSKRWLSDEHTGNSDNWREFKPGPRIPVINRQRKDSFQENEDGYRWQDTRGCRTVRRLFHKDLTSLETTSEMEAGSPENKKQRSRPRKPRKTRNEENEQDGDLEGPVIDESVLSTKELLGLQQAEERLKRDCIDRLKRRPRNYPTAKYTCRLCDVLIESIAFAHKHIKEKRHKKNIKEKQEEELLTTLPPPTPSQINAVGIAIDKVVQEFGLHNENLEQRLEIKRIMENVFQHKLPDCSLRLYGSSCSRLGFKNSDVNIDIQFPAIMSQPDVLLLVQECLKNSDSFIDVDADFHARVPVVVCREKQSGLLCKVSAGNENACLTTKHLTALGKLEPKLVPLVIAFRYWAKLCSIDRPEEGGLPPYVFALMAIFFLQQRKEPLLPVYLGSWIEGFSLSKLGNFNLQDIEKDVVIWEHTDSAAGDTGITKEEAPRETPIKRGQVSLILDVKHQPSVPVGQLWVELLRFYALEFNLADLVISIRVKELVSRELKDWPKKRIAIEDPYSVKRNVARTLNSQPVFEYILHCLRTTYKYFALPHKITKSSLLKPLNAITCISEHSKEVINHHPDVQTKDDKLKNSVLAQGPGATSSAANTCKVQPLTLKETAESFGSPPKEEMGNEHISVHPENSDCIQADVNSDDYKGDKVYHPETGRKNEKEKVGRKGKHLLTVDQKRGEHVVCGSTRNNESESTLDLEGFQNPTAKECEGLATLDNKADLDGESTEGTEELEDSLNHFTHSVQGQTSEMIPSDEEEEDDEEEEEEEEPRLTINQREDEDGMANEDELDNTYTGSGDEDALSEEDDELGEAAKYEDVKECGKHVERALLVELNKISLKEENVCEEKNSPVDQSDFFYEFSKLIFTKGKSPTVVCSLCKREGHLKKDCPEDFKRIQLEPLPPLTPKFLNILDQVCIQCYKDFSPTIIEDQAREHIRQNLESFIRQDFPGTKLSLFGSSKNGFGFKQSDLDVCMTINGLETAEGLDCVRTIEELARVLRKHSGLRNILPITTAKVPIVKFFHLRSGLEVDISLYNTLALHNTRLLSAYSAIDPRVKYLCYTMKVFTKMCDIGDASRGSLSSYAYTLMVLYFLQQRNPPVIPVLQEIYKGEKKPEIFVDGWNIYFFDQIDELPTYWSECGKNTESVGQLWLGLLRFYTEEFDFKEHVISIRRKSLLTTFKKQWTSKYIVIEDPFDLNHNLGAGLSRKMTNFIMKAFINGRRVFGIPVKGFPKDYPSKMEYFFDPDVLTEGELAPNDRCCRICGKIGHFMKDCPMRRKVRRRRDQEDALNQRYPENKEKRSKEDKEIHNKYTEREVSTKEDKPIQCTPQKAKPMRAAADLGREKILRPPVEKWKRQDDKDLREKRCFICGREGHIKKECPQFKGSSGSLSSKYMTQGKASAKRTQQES
UniProt Q86Y07: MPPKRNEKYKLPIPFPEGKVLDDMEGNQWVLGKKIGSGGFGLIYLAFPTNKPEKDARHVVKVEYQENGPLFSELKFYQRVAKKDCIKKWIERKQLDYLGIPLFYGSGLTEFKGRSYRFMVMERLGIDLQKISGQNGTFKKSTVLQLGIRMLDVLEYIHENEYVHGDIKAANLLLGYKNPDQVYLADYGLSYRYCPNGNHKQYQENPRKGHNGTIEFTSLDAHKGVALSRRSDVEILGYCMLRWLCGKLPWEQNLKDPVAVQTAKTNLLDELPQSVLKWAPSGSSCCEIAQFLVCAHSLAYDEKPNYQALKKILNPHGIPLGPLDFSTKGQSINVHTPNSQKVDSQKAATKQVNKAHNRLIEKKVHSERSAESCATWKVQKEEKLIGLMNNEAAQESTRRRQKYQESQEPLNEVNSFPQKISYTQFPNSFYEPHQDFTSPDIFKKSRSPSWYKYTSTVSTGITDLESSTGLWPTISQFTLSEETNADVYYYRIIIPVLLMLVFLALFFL

Compound in the assay: COc1ccc(Cn2ccc3ccc(C(=O)NO)cc32)cc1
Kind of assay: dose-dependent thermal stabilisation call (2D-TPP, DLPTP, 10% FDR) (binary (1 = stabilised)); higher = stabilised by the compound. Conditions: system: HL-60 intact cells; concentration range 0.04-10 µM.

Some of the results follow.

Turning to WASF2 (UniProt Q9Y6W5), the “dose-dependent thermal stabilisation call” value was inactive: 0.

Regarding VPS4A (UniProt Q9UN37), the “dose-dependent thermal stabilisation call” value is inactive: 0.

With ZDHHC18 (UniProt Q9NUE0), the “dose-dependent thermal stabilisation call” value was inactive: 0.

Regarding ZNF207 (UniProt O43670), the “dose-dependent thermal stabilisation call” value is inactive: 0.

Take ZMYM3 (UniProt Q14202): the “dose-dependent thermal stabilisation call” value is inactive: 0.

As for VPS29 (UniProt Q9UBQ0), the “dose-dependent thermal stabilisation call” value was inactive: 0.

In the case of UTP15 (UniProt Q8TED0), the “dose-dependent thermal stabilisation call” value is inactive: 0.

WIPI2 (UniProt Q9Y4P8): the “dose-dependent thermal stabilisation call” value is inactive: 0.

Consider ZCCHC6 (UniProt Q5VYS8), for which the “dose-dependent thermal stabilisation call” value was inactive: 0.

In the case of VRK2 (UniProt Q86Y07), the “dose-dependent thermal stabilisation call” value is inactive: 0.
